From publication PMC12314576, “The Actin‐Binding Prolyl‐Isomerase Par17 Sustains Its Substrate Selectivity by Interdomain Allostery” (Proteins, 2025)
No constants are given. Whether binding was seen depends on the method and setting. Some results given as binding are weak or reduced against the parent protein; the word gives no strength.

Assays:
Assay in all cases: peptide or protein array; 12-mers of β-actin (2 amino acids per step) SPOT-synthesised on cellulose membranes, blocked with 5% BSA in PBS, incubated overnight with Atto594-labeled Par14 or Par17, washed with PBS, fluorescence imaged; runs of three or more spots classified as possible binding sites; both purified
β-actin 12-mer, spot E4 = target: T1, β-actin 12-mer, spot E4
T1 sequence (peptide): TPAMYVAIQAVL

β-actin 12-mer, spot J8 = target: T2, β-actin 12-mer, spot J8
T2 sequence (peptide): LSGGTTMYPGIA

β-actin 12-mer, spot P1 = target: T3, β-actin 12-mer, spot P1
T3 sequence (peptide): FPSIVGRPRHQG

β-actin 12-mer, spot I9 = target: T4, β-actin 12-mer, spot I9
T4 sequence (peptide): YSVWIGGSILAS

β-actin 12-mer, spot P9 = target: T5, β-actin 12-mer, spot P9
T5 sequence (peptide): TFQQMWISKQEY

β-actin 12-mer, spot R5 = target: T6, β-actin 12-mer, spot R5
T6 sequence (peptide): ERGYSFTTTAER

β-actin 12-mer, spot D3 = target: T7, β-actin 12-mer, spot D3
T7 sequence (peptide): HHTFYNELRVAP

β-actin 12-mer, spot D4 = target: T8, β-actin 12-mer, spot D4
T8 sequence (peptide): FNTPAMYVAIQA

β-actin 12-mer, spot C7 = target: T9, β-actin 12-mer, spot C7
T9 sequence (peptide): GQVITIGNERFR

β-actin 12-mer, spot N9 = target: T10, β-actin 12-mer, spot N9
T10 sequence (peptide): ASLSTFQQMWIS

β-actin 12-mer, spot M8 = target: T11, β-actin 12-mer, spot M8
T11 sequence (peptide): MYPGIADRMQKE

β-actin 12-mer, spot H9 = target: T12, β-actin 12-mer, spot H9
T12 sequence (peptide): RKYSVWIGGSIL

β-actin 12-mer, spot B3 = target: T13, β-actin 12-mer, spot B3
T13 sequence (peptide): EKIWHHTFYNEL

β-actin 12-mer, spot H2 = target: T14, β-actin 12-mer, spot H2
T14 sequence (peptide): GDEAQSKRGILT

β-actin 12-mer, spot I4 = target: T15, β-actin 12-mer, spot I4
T15 sequence (peptide): QAVLSLYASGRT

β-actin 12-mer, spot Q5 = target: T16, β-actin 12-mer, spot Q5
T16 sequence (peptide): LTERGYSFTTTA

β-actin 12-mer, spot M9 = target: T17, β-actin 12-mer, spot M9
T17 sequence (peptide): ILASLSTFQQMW

β-actin 12-mer, spot H7 = target: T18, β-actin 12-mer, spot H7
T18 sequence (peptide): FRCPEALFQPSF

binding (β-actin 12-mer, spot E4): binds
binding (β-actin 12-mer, spot J8): binds
binding (β-actin 12-mer, spot P1): binds
binding (β-actin 12-mer, spot I9): binds
binding (β-actin 12-mer, spot P9): binds
binding (β-actin 12-mer, spot R5): binds
binding (β-actin 12-mer, spot D3): binds
binding (β-actin 12-mer, spot D4): binds
binding (β-actin 12-mer, spot C7): binds
binding (β-actin 12-mer, spot N9): binds
binding (β-actin 12-mer, spot M8): binds
binding (β-actin 12-mer, spot H9): binds
binding (β-actin 12-mer, spot B3): binds
binding (β-actin 12-mer, spot H2): binds
binding (β-actin 12-mer, spot I4): binds
binding (β-actin 12-mer, spot Q5): binds
binding (β-actin 12-mer, spot M9): binds
binding (β-actin 12-mer, spot H7): binds
Substance: Atto594-labeled Par17 (from UniProt Q9Y237-2 3-156) (enzyme)
